Source: publication doi:10.1101/2021.03.30.437639
Results are given in words; binding and its absence hold for the method and conditions named. Binding seen in cells or lysates may run through a third protein. A result given as binding can be weak or reduced; the word gives no strength.

Tests used:
Assay in all cases: co-IP
[1] = biological target: Rga6(ΔN1)-GFP (S. pombe)
[2] = biological target: Rga6(ΔN2)-GFP (S. pombe)
[3] = biological target: Rga6(ΔN3)-GFP (S. pombe)
[4] = biological target: Rga6(ΔPBR)-GFP (S. pombe)

binding [1]: binds
binding [2]: binds
binding [3]: binds
binding [4]: binds weakly
B1: Spn1-tdTomato (protein, UniProt O36023 1-469)
chain: MASMVLADGMPTVKDDSTRSRGSDVDSFTSTDNVTQINVEAAISENKNEEKPIQDNSEQEFNPHVSIIQRQLNGYVGFASLPNQWHRRCVRQGFNFNVLVLGESGSGKSTLVNTLLNRDVYPPTQKSLTGDFGVNPEPTVMINSSAVEIVENGISLQLNVIDTPGFGDFIDNTDCWQPVLTDIEGRYDQYLELEKHNPRSTIQDPRVHACIFFIQPTGHAISAMELRVMLALHEKVNIIPIIAKADTLTDDELNFTKEMILRDIQYHNIRIFFPPTYETDDPESVAENADIMSRIPFAIIASNTFVVNNEGKRVRGRRYPWGVVEVDNEEHSDFPKLREMLIRTHLEELKEQTNKLYEAYRTERLLSSGISQDHSVFREVNPSAKLEEERALHEEKLMKMEAEMKTIFSQKVQEKEDRLKQSENELRTRHREMKAALEKQKADLIDHKNRLMQAKAAAENEKSKRKFFK
